# Measurements published in article PMC3466219 (PLoS ONE, 2012).
# Tested on: AR, PSA, p53 and p21 protein in LNCaP cells
smiles,measurement,value
"c1cc(SSc2ccns2)sn1 [NU9056, 1,2-Bis(isothiazol-5-yl)disulfane]",reduction of p21 protein level,3 fold
same,reduction of p53 protein level,3 fold
